Experimental findings from PMC4354016, “Centromeric binding and activity of Protein Phosphatase 4” (Nature Communications, 2015) are described below.

Chains of the proteins cited; added tags and fusions are not shown.
UniProt Q8IRG6: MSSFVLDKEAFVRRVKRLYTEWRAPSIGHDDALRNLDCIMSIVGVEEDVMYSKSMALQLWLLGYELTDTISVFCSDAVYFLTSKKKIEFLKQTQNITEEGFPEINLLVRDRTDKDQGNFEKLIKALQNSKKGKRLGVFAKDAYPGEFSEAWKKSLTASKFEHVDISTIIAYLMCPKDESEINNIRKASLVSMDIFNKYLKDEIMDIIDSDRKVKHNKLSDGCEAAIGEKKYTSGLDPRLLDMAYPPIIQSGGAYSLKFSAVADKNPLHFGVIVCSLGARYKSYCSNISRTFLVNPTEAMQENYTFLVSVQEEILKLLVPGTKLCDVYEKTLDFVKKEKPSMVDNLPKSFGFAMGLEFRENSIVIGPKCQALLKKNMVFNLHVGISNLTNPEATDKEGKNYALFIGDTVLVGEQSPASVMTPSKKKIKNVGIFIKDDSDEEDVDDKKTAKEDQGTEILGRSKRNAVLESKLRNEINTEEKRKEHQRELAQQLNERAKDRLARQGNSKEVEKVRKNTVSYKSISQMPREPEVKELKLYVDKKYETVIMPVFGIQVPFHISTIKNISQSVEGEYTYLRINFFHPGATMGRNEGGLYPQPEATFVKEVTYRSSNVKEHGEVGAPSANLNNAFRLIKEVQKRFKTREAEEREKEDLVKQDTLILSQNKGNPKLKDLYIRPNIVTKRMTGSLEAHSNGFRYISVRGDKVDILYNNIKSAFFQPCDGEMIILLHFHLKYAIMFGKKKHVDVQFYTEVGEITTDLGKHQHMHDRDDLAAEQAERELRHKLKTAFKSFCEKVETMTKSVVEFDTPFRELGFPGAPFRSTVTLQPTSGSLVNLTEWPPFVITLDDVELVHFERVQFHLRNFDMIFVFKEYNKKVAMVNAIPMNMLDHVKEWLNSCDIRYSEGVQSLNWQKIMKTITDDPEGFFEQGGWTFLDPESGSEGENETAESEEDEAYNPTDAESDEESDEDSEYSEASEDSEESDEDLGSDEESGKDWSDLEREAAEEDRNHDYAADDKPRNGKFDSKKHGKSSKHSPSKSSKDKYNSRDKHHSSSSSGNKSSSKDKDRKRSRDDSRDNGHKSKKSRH
UniProt P92177: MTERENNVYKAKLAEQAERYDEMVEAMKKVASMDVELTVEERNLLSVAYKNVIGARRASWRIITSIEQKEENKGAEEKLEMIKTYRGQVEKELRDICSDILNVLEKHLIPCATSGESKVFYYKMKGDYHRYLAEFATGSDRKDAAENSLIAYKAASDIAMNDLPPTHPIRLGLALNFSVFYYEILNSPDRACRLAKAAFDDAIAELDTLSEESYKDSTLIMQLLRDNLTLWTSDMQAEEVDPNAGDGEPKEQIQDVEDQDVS
UniProt Q9V6Q2: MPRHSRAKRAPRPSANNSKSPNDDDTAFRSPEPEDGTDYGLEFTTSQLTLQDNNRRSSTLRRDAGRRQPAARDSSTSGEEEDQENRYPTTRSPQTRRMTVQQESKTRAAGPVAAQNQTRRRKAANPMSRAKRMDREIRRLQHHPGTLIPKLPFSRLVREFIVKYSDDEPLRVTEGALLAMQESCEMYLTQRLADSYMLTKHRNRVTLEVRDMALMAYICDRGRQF

Where two headings read alike, the source gives them in different places. No constants are given. Whether binding was seen depends on the method and setting. In cells and extracts the contact can be indirect. A yes stands for co-enrichment or nearness to the bait. Other partners may have been found.

Assay [1] concerns the target T1, CENP-C::protein A (Drosophila melanogaster) (UniProt Q9VHP9).
T1 sequence: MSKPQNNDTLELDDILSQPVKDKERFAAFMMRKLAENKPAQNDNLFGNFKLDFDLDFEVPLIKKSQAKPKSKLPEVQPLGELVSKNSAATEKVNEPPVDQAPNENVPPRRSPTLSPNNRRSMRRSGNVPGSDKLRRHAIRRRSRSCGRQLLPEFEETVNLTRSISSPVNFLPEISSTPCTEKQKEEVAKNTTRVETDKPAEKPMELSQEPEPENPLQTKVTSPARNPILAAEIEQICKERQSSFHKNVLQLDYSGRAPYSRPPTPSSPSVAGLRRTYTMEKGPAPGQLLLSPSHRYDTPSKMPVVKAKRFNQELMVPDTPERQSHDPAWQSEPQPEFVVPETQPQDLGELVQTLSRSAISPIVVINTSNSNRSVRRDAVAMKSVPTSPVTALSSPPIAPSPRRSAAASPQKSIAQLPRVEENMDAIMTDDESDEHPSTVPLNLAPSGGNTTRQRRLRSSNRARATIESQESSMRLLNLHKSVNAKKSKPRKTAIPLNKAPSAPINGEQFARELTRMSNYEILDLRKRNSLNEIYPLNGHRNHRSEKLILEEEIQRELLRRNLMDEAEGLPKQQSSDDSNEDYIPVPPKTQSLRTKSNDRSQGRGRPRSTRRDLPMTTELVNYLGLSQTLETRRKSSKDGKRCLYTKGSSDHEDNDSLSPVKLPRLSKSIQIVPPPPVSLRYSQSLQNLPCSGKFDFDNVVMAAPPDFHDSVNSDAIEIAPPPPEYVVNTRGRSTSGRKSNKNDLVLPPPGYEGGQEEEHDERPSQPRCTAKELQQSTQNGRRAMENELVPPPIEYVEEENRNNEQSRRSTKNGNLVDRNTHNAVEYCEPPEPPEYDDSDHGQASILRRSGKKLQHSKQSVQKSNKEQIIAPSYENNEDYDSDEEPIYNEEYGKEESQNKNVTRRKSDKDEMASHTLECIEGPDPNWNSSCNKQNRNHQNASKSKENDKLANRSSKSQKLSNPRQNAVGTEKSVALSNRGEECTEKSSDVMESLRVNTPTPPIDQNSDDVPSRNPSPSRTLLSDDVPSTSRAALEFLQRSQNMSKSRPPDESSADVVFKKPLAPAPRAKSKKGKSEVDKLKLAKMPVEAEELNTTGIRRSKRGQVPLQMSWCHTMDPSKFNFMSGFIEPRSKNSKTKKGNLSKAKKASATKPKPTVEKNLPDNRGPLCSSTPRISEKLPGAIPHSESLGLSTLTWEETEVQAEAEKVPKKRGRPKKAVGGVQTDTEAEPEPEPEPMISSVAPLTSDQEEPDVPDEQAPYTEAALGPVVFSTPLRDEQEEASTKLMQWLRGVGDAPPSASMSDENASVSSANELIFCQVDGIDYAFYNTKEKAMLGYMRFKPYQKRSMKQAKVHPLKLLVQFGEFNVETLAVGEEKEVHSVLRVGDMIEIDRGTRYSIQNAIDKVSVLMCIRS
In words: affinity purification with mass spectrometry; protein A-tagged bait from ~10^9 D.Mel-2 cells, lysate in extraction buffer (50 mM HEPES pH 7.5, 0.5% NP-40), DNase I, rabbit IgG Dynabeads 2 h 4 °C, LC-MS/MS, Mascot.

The target in assay [2] is T1, CENP-C::protein A (Drosophila melanogaster). Described as above. This is another data set of the same source.

For “Dre4 (FACT complex) (from UniProt Q8IRG6 1-1083)”, the binding result in assay [1] is reported as “binds”.
Still for that read-out and setting: the same measure for “14-3-3epsilon (from UniProt P92177 1-262)”: “binds”.
On the same count and under the same terms, the same measure for “CENP-A/CID (from UniProt Q9V6Q2 1-225) (other; other documents disagree on this pair)”: “binds”.

B1: Topoisomerase2 (enzyme, UniProt P15348 1-1447)
chain: MENGNKALSIEQMYQKKSQLEHILLRPDSYIGSVEFTKELMWVYDNSQNRMVQKEISFVPGLYKIFDEILVNAADNKQRDKSMNTIKIDIDPERNMVSVWNNGQGIPVTMHKEQKMYVPTMIFGHLLTSSNYNDDEKKVTGGRNGYGAKLCNIFSTSFTVETATREYKKSFKQTWGNNMGKASDVQIKDFNGTDYTRITFSPDLAKFKMDRLDEDIVALMSRRAYDVAASSKGVSVFLNGNKLGVRNFKDYIDLHIKNTDDDSGPPIKIVHEVANERWEVACCPSDRGFQQVSFVNSIATYKGGRHVDHVVDNLIKQLLEVLKKKNKGGINIKPFQVRNHLWVFVNCLIENPTFDSQTKENMTLQQKGFGSKCTLSEKFINNMSKSGIVESVLAWAKFKAQNDIAKTGGRKSSKIKGIPKLEDANEAGGKNSIKCTLILTEGDSAKSLAVSGLGVIGRDLYGVFPLRGKLLNVREANFKQLSENAEINNLCKIIGLQYKKKYLTEDDLKTLRYGKVMIMTDQDQDGSHIKGLLINFIHTNWPELLRLPFLEEFITPIVKATKKNEELSFYSLPEFEEWKNDTANHHTYNIKYYKGLGTSTSKEAKEYFQDMDRHRILFKYDGSVDDESIVMAFSKKHIESRKVWLTNHMDEVKRRKELGLPERYLYTKGTKSITYADFINLELVLFSNADNERSIPSLVDGLKPGQRKVMFTCFKRNDKREVKVAQLSGSVAEMSAYHHGEVSLQMTIVNLAQNFVGANNINLLEPRGQFGTRLSGGKDCASARYIFTIMSPLTRLIYHPLDDPLLDYQVDDGQKIEPLWYLPIIPMVLVNGAEGIGTGWSTKISNYNPREIMKNLRKMINGQEPSVMHPWYKNFLGRMEYVSDGRYIQTGNIQILSGNRLEISELPVGVWTQNYKENVLEPLSNGTEKVKGIISEYREYHTDTTVRFVISFAPGEFERIHAEEGGFYRVFKLTTTLSTNQMHAFDQNNCLRRFPTAIDILKEYYKLRREYYARRRDFLVGQLTAQADRLSDQARFILEKCEKKLVVENKQRKAMCDELLKRGYRPDPVKEWQRRIKMEDAEQADEEDEEEEEAAPSVSSKAKKEKEVDPEKAFKKLTDVKKFDYLLGMSMWMLTEEKKNELLKQRDTKLSELESLRKKTPEMLWLDDLDALESKLNEVEEKERAEEQGINLKTAKALKGQKSASAKGRKVKSMGGGAGAGDVFPDPDGEPVEFKITEEIIKKMAAAAKVAQAAKEPKKPKEPKEPKVKKEPKGKQIKAEPDASGDEVDEFDAMVEGGSKTSPKAKKAVVKKEPGEKKPRQKKENGGGLKQSKIDFSKAKAKKSDDDVEEVTPRAERPGRRQASKKIDYSSLFSDEEEDGGNVGSDDDGNASDDDSPKRPAKRGREDESSGGAKKKAPPKKRRAVIESDDDDIEIDEDDDDDSDFNC
On to B1, for which the binding entry in assay [2] is recorded as “binds”.

B2: 14-3-3zeta (protein, UniProt P29310 1-248)
chain: MSTVDKEELVQKAKLAEQSERYDDMAQAMKSVTETGVELSNEERNLLSVAYKNVVGARRSSWRVISSIEQKTEASARKQQLAREYRERVEKELREICYEVLGLLDKYLIPKASNPESKVFYLKMKGDYYRYLAEVATGDARNTVVDDSQTAYQDAFDISKGKMQPTHPIRLGLALNFSVFYYEILNSPDKACQLAKQAFDDAIAELDTLNEDSYKDSTLIMQLLRDNLTLWTSDTQGDEAEPQEGGDN
Regarding B2, in assay [2], the binding entry was “binds”.

B3: SSRP1 (FACT complex) (protein, UniProt Q05344 1-723)
chain: MTDSLEYNDINAEVRGVLCSGRLKMTEQNIIFKNTKTGKVEQISAEDIDLINSQKFVGTWGLRVFTKGGVLHRFTGFRDSEHEKLGKFIKAAYSQEMVEKEMCVKGWNWGTARFMGSVLSFDKESKTIFEVPLSHVSQCVTGKNEVTLEFHQNDDAPVGLLEMRFHIPAVESAEEDPVDKFHQNVMSKASVISASGESIAIFREIQILTPRGRYDIKIFSTFFQLHGKTFDYKIPMDSVLRLFMLPHKDSRQMFFVLSLDPPIKQGQTRYHYLVLLFAPDEETTIELPFSEAELRDKYEGKLEKEISGPVYEVMGKVMKVLIGRKITGPGNFIGHSGTAAVGCSFKAAAGYLYPLERGFIYIHKPPLHIRFEEISSVNFARSGGSTRSFDFEVTLKNGTVHIFSSIEKEEYAKLFDYITQKKLHVSNMGKDKSGYKDVDFGDSDNENEPDAYLARLKAEAREKEEDDDDGDSDEESTDEDFKPNENESDVAEEYDSNVESDSDDDSDASGGGGDSDGAKKKKEKKSEKKEKKEKKHKEKERTKKPSKKKKDSGKPKRATTAFMLWLNDTRESIKRENPGIKVTEIAKKGGEMWKELKDKSKWEDAAAKDKQRYHDEMRNYKPEAGGDSDNEKGGKSSKKRKTEPSPSKKANTSGSGFKSKEYISDDDSTSSDDEKDNEPAKKKSKPPSDGDAKKKKAKSESEPEESEEDSNASDEDEEDEASD
On to B3, for which, in assay [2], the binding entry is “binds”.
